Values from PubChem BioAssay AID720505 (Drosophila RNAi Screening Center, 2013)
The deposit covers about 20,000 reagents; shown is a random part of those that have a named target and a result. In the full data, about 2,100 (10%) were called active. 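Raw plate signals without normalisation; calls rest on control-based scores that were not deposited; replicate 2 separates called from uncalled poorly.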 Entries without a mark were called inactive. Reagents against one gene are numbered here. Names joined by + are all predicted targets of the reagent. Not stated in the record: the amount of reagent, the time to read-out.

- Aim: 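Fly regulators or components of the CRAC channel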 (primary screen)
- System: Drosophila S2R+ cells
- Reagents: long dsRNA against Drosophila genes
- Challenge: thapsigargin (2 µM) in calcium-free buffer to empty internal stores, then 2 mM calcium added back
- Read-out: 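Stores emptied by 2 µM thapsigargin without calcium, then 2 mM calcium re-added; fluo-4 fluorescence followed by FLIPR in 384-well plates, per-well averaged endpoint, raw; two screen passes, some wells retested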
- Scale: calcium signal and retest calcium signal: higher = more calcium entry after store depletion
- Rule for the call: 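Knock-downs counted as hits when calcium entry dropped relative to STIM1 positive and Rho1 negative controls present on each plate; roughly 1500 genes called, with reductions of differing size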
- Calls: active = called as lowering calcium entry; inactive = not called

| target gene | reagent | calcium signal, replicate 1 | calcium signal, replicate 2 | retest calcium signal, replicate 1 | retest calcium signal, replicate 2 |
| --- | --- | --- | --- | --- | --- |
| CG9988 | 1 | 166 | 202 | – | – |
| ab (abrupt) | 1 | 126 | 94.4 | – | – |
| ab (abrupt) | 2 | 190 | 168 | – | – |
| ab (abrupt) | 3 | 79.7 | 144 | – | – |
| ab (abrupt) | 4 | 116 | 103 | – | – |
| CG3548 | 1 | 142 | 85.1 | – | – |
| CG11865 | 1 | 96.4 | 107 | – | – |
| Shc (SHC-adaptor protein) | 1 | 89.8 | 105 | – | – |
| Trs23 (TRAPP subunit 23) | 1 | 213 | 141 | – | – |
| CG12539 | 1 | 125 | 147 | – | – |
| smg (smaug) | 1 | 98.3 | 104 | – | – |
| Hpr1 | 1 | 109 | 122 | – | – |
| Cep164 (centrosomal protein 164) | 1 | 83 | 108 | – | – |
| CG13676 | 1 | 97.9 | 61.1 | – | – |
| CG5149 | 1 | 99.1 | 274 | – | – |
| CG11286 | 1 | 134 | 200 | – | – |
| CG4733 | 1 | 170 | 152 | – | – |
| tHMG1 (testis-enriched HMG-box-containing protein 1) | 1 | 125 | 163 | – | – |
| CG34171 | 1 | 76.3 | 211 | – | – |
| Ae2 (Anion exchanger 2) | 1 | 101 | 128 | – | – |
| Ae2 (Anion exchanger 2) | 2 | 53.2 (active) | 82.4 | – | – |
| Rab21 | 1 | 69.4 (active) | 210 | – | – |
| Hmu (Hemomucin) | 1 | 164 | 124 | – | – |
| CG15631 | 1 | 201 | 119 | – | – |
| MtnB (Metallothionein B) | 1 | 93.2 | 187 | – | – |
| CG9698 | 1 | 161 | 94 | – | – |
| Torsin | 1 | 130 | 90.7 | 213 | 196 |
| Sdhaf3 (Succinate dehydrogenase assembly factor 3) | 1 | 78.2 | 149 | – | – |
| CG34183 | 1 | 71.9 (active) | 145 | – | – |
| pch2 (pachytene checkpoint 2) | 1 | 149 | 154 | – | – |
| E(spl)m6-BFM (Enhancer of split m6, Bearded family member) | 1 | 208 | 140 | – | – |
| Dyrk3 (Dual-specificity tyrosine phosphorylation-regulated kinase 3) | 1 | 79.1 | 131 | – | – |
| KLHL18 (Kelch like family member 18) | 1 | 151 | 104 | – | – |
| CG2003 | 1 | 85.3 | 138 | – | – |
| CG6345 | 1 | 135 | 142 | – | – |
| l(2)k09022 (lethal (2) k09022) | 1 | 87.5 | 106 | – | – |
| CG30016 | 1 | 83.5 | 147 | – | – |
| CG14963 | 1 | 89.2 | 120 | – | – |
| CG7202 | 1 | 97.2 | 149 | – | – |
| Hers (Histone gene-specific Epigenetic Repressor in late S phase) | 1 | 143 | 133 | – | – |
| Hers (Histone gene-specific Epigenetic Repressor in late S phase) | 2 | 58.5 (active) | 97.1 | – | – |
| CG13810 | 1 | 67.4 | 119 | – | – |
| CG13810 | 2 | 114 | 90.3 | – | – |
| CG15043 | 1 | 73.4 | 115 | – | – |
| Tig (Tiggrin) | 1 | 96.5 | 100 | – | – |
| Eig71Ei | 1 | 89.2 | 147 | – | – |
| CG12374 | 1 | 87.2 | 192 | – | – |
| L (retired record) | 1 | 111 | 144 | – | – |
| L (retired record) | 2 | 87.8 | 127 | – | – |
| Muc4B (Mucin 4B) | 1 | 148 | 123 | – | – |
| Muc4B (Mucin 4B) | 2 | 115 | 104 | – | – |
| step (steppke) | 1 | 78.5 (active) | 75.7 | – | – |
| step (steppke) | 2 | 127 | 106 | – | – |
| CG16758 | 1 | 165 | 131 | – | – |
| CG9586 | 1 | 208 | 119 | – | – |
| CG2865 | 1 | 111 | 197 | – | – |
| CG2865 | 2 | 111 | 204 | – | – |
| CG43980 | 1 | 122 | 143 | – | – |
| CG43980 | 2 | 119 | 131 | – | – |
| pHCl-2 (pH-sensitive chloride channel 2) | 1 | 220 | 131 | – | – |
| slgA (sluggish A) | 1 | 174 | 86.8 | – | – |
| CG10137 | 1 | 90.1 | 157 | – | – |
| CG10137 | 2 | 150 | 81.3 | – | – |
| CG13367 | 1 | 105 | 115 | – | – |
| CG13367 | 2 | 65.8 (active) | 95.4 | – | – |
| png (pan gu) | 1 | 43.9 (active) | 114 | – | – |
| DNaseII (Deoxyribonuclease II) | 1 | 151 | 250 | – | – |
| Cap-D3 + tomb | 1 | 80.2 | 125 | – | – |
| crn (crooked neck) | 1 | 78.7 | 91.7 | – | – |
| crn (crooked neck) | 2 | 98.4 | 148 | – | – |
| crn (crooked neck) | 3 | 68.6 (active) | 101 | – | – |
| CG6432 | 1 | 219 | 263 | – | – |
| CG16865 | 1 | 118 | 159 | – | – |
| CG15719 | 1 | 146 | 85 | – | – |
| bond (james bond) | 1 | 223 | 263 | – | – |
| CG33144 | 1 | 144 | 102 | – | – |
| CG33144 | 2 | 118 | 178 | – | – |
| ND-13B (NADH dehydrogenase (ubiquinone) 13 kDa B subunit) | 1 | 60.9 | 56 | – | – |
| CG8952 | 1 | 109 | 132 | – | – |
| CG13775 | 1 | 170 | 104 | – | – |
| CG15822 | 1 | 37 (active) | 85.7 | – | – |
| CG15822 | 2 | 76.4 | 87.7 | – | – |
| CG2701 | 1 | 117 | 127 | – | – |

Part of the list above, set out differently:
target gene,reagent,"calcium signal, replicate 1","calcium signal, replicate 2","retest calcium signal, replicate 1","retest calcium signal, replicate 2"
CG13367,2,65.8 (active),95.4,,
png (pan gu),1,43.9 (active),114,,
DNaseII (Deoxyribonuclease II),1,151,250,,
Cap-D3 + tomb,1,80.2,125,,
crn (crooked neck),1,78.7,91.7,,
crn (crooked neck),2,98.4,148,,
crn (crooked neck),3,68.6 (active),101,,
